Experimental data reported in patent US12077566.

Target: PDGFR
Test: immunofluorescence co-localization on cells

- binding: no binding
B1: recombinant immunoregulatory protein of Ganoderma lucidum (rLZ-8) (protein)
chain: MSDTALIFRLAWDVKKLSFDYTPNWGRGNPNNFIDTVTFPKVLTDKAYTYRVAVSGRNLGVKPSYAVESDGSQKVNFLEYNSGYGIADTNTIQVFVVDPDTNNDFIIAQWN

These are yes or no findings as the source states them, for the method shown. Tags and fused reporters may be left off the sequences shown.
